Reference: the supplement of paper PMC10735217
Some of the results follow. Single values are uncertain here, since repeats match poorly.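 The human kidney-derived cells carry a stably integrated construct of eight TEAD-binding elements driving luciferase, read by luminescence in a drug-repurposing library screen. A compound counts as a hit when its signal is more than five robust Z scores above the plate mean.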

Tested on: HEK293A TEAD-LUC reporter
Assay: TEAD-luciferase reporter activity (YAP activation), robust Z score vs plate; higher = stronger YAP/TEAD activation
Conditions: 24 h

CCN(CC)CCOc1ccccc1C(=O)CCc1ccccc1
TEAD-luciferase reporter activity (compound concentration: 200 nM): inactive: 0.017
TEAD-luciferase reporter activity (compound concentration: 10 uM): inactive: -1.62

CCN(CC)CCOc1ccccc1C(=O)CCc1ccccc1 [etafe   , Guidotti]
TEAD-luciferase reporter activity (compound concentration: 2 uM): inactive: -1.13

COc1cc2nc(N3CCNCC3)nc(N)c2cc1OC
TEAD-luciferase reporter activity (compound concentration: 200 nM): inactive: -0.184
TEAD-luciferase reporter activity (compound concentration: 2 uM): inactive: 2.6
TEAD-luciferase reporter activity (compound concentration: 10 uM): inactive: -0.239

Cc1ccc2c(=O)c3cccc(CC(=O)O)c3oc2c1C [Vadimezan]
TEAD-luciferase reporter activity (compound concentration: 2 uM): inactive: -0.643

Cc1ccc2c(=O)c3cccc(CC(=O)O)c3oc2c1C
TEAD-luciferase reporter activity (compound concentration: 200 nM): inactive: -1.35
TEAD-luciferase reporter activity (compound concentration: 10 uM): inactive: 0.346

CCO/N=C(\C)c1ccc2c(c1)ncn2-c1cccc(-c2cccnc2)c1
TEAD-luciferase reporter activity (compound concentration: 200 nM): inactive: -1.57
TEAD-luciferase reporter activity (compound concentration: 2 uM): inactive: -0.851
TEAD-luciferase reporter activity (compound concentration: 10 uM): inactive: 0.505

Cc1ccc2c(-c3ccc(F)cc3)nc(=O)n(C(C)C)c2c1
TEAD-luciferase reporter activity (compound concentration: 200 nM): inactive: -0.0568
TEAD-luciferase reporter activity (compound concentration: 2 uM): inactive: -1.58
TEAD-luciferase reporter activity (compound concentration: 10 uM): inactive: 0.314

O=C(O)c1cc(/N=N/c2ccc(O)c(C(=O)O)c2)ccc1O [Olsalazine disodium]
TEAD-luciferase reporter activity (compound concentration: 200 nM): inactive: -1.17
TEAD-luciferase reporter activity (compound concentration: 10 uM): inactive: 0.227

O=C(O)c1cc(/N=N/c2ccc(O)c(C(=O)O)c2)ccc1O [olsalazine]
TEAD-luciferase reporter activity (compound concentration: 2 uM): inactive: -0.94

CC(CCN1CCN(c2ccc(F)cc2)CC1)NC(=O)c1cccnc1 (configuration not stated)
TEAD-luciferase reporter activity (compound concentration: 200 nM): inactive: -0.188
TEAD-luciferase reporter activity (compound concentration: 2 uM): inactive: -2.07
TEAD-luciferase reporter activity (compound concentration: 10 uM): inactive: 0.219

COCC(=O)Nc1ccc(/N=C(\C)N(C)C)cc1
TEAD-luciferase reporter activity (compound concentration: 200 nM): inactive: -0.878
TEAD-luciferase reporter activity (compound concentration: 2 uM): inactive: 0.634
TEAD-luciferase reporter activity (compound concentration: 10 uM): inactive: 0.816

C#CC(N)CCC(C)N (configuration not stated)
TEAD-luciferase reporter activity (compound concentration: 200 nM): inactive: -0.402
TEAD-luciferase reporter activity (compound concentration: 2 uM): inactive: -1.17
TEAD-luciferase reporter activity (compound concentration: 10 uM): inactive: -0.0698

CC(C)(CO)[C@@H](O)C(=O)NCCC(=O)NCCSc1c2c(c3ccccc3c1O)NC(=O)CS2
TEAD-luciferase reporter activity (compound concentration: 200 nM): inactive: -0.915
TEAD-luciferase reporter activity (compound concentration: 2 uM): inactive: 1.06
TEAD-luciferase reporter activity (compound concentration: 10 uM): inactive: 1.22

O=C1c2cc(-c3ccc(OC(F)(F)F)cc3)ccc2OCCN1Cc1ncccn1 [Eleclazine]
TEAD-luciferase reporter activity (compound concentration: 200 nM): inactive: -1.3
TEAD-luciferase reporter activity (compound concentration: 2 uM): inactive: -0.261
TEAD-luciferase reporter activity (compound concentration: 10 uM): inactive: -0.199

CC(C)COC(=O)C1(F)C(=O)NC(=O)NC1O/N=C/c1ccco1 (configuration not stated)
TEAD-luciferase reporter activity (compound concentration: 200 nM): inactive: 1.73
TEAD-luciferase reporter activity (compound concentration: 2 uM): inactive: -1.28
TEAD-luciferase reporter activity (compound concentration: 10 uM): inactive: -1.24

CC(=O)N1CCC(=C2c3ccc(Cl)cc3CCc3cccnc32)CC1
TEAD-luciferase reporter activity (compound concentration: 200 nM): inactive: -2.09
TEAD-luciferase reporter activity (compound concentration: 2 uM): inactive: -0.143
TEAD-luciferase reporter activity (compound concentration: 10 uM): inactive: -0.0382

COc1ccc(S(=O)(=O)N2c3ccc(Cl)cc3[C@](O)(c3ccccc3Cl)[C@@H]2C(=O)N2CCC[C@H]2C(N)=O)cc1OC [Relcovaptan]
TEAD-luciferase reporter activity (compound concentration: 200 nM): inactive: 0.373
TEAD-luciferase reporter activity (compound concentration: 2 uM): inactive: -0.846
TEAD-luciferase reporter activity (compound concentration: 10 uM): inactive: -2.4

Cc1ccccc1C(=O)Nc1ccc(C(=O)N2CCCC(O)c3cc(Cl)ccc32)c(C)c1 (configuration not stated) [tolvaptan]
TEAD-luciferase reporter activity (compound concentration: 200 nM): inactive: -0.542
TEAD-luciferase reporter activity (compound concentration: 2 uM): inactive: -2.7
TEAD-luciferase reporter activity (compound concentration: 10 uM): inactive: -3.13

CCCCOC(=O)CC(c1ccccc1)N1CCCCC1 (configuration not stated)
TEAD-luciferase reporter activity (compound concentration: 200 nM): inactive: -0.737
TEAD-luciferase reporter activity (compound concentration: 2 uM): inactive: 0.197
TEAD-luciferase reporter activity (compound concentration: 10 uM): inactive: 0.441

O=C(O[C@@H]1C[C@@H]2C[C@@H]3C[C@H](C1)N2CC3=O)c1c[nH]c2ccccc12 [dolasetron mesilate]
TEAD-luciferase reporter activity (compound concentration: 2 uM): inactive: -1.19

O=C(O[C@@H]1C[C@@H]2C[C@@H]3C[C@H](C1)N2CC3=O)c1c[nH]c2ccccc12
TEAD-luciferase reporter activity (compound concentration: 200 nM): inactive: -0.236
TEAD-luciferase reporter activity (compound concentration: 10 uM): inactive: 1.46

COc1ccc(C2(c3ccccc3)NC(=O)N(CCCN3CCC(c4ccccc4)CC3)C2=O)cc1 (configuration not stated)
TEAD-luciferase reporter activity (compound concentration: 200 nM): inactive: -0.392
TEAD-luciferase reporter activity (compound concentration: 2 uM): inactive: -0.903
TEAD-luciferase reporter activity (compound concentration: 10 uM): inactive: -0.448

COc1ccc(S(=O)(=O)Nc2cccnc2Nc2ccc(O)cc2)cc1
TEAD-luciferase reporter activity (compound concentration: 200 nM): inactive: 2.44
TEAD-luciferase reporter activity (compound concentration: 2 uM): inactive: -0.58
TEAD-luciferase reporter activity (compound concentration: 10 uM): inactive: -0.18

CC(N)C(=O)OC(C)(C)Cc1ccc(Cl)cc1 (configuration not stated)
TEAD-luciferase reporter activity (compound concentration: 200 nM): inactive: -2.89
TEAD-luciferase reporter activity (compound concentration: 2 uM): inactive: -0.613
TEAD-luciferase reporter activity (compound concentration: 10 uM): inactive: -1.35

O=C(c1ccc(F)cc1)N1CCCC(C(=O)N2CCC(N3CCCC3=O)CC2)C1 (configuration not stated)
TEAD-luciferase reporter activity (compound concentration: 200 nM): inactive: 1.32
TEAD-luciferase reporter activity (compound concentration: 10 uM): inactive: 4.04

CC(C)(N)[C@H](NC(=O)c1ccc(C#CC#C[C@@H]2C[C@H]2CO)cc1)C(=O)NO
TEAD-luciferase reporter activity (compound concentration: 200 nM): inactive: 0.308
TEAD-luciferase reporter activity (compound concentration: 2 uM): inactive: -0.277
TEAD-luciferase reporter activity (compound concentration: 10 uM): inactive: -0.429

CCCC(CCC)C(=O)O
TEAD-luciferase reporter activity (compound concentration: 200 nM): inactive: 4.9
TEAD-luciferase reporter activity (compound concentration: 10 uM): inactive: -2.16

CCCC(CCC)C(=O)O [magnesium valproate hydrate]
TEAD-luciferase reporter activity (compound concentration: 2 uM): inactive: -0.885

CCOc1cc2cc(C(=O)O)sc2cc1OCC
TEAD-luciferase reporter activity (compound concentration: 200 nM): inactive: -1.58
TEAD-luciferase reporter activity (compound concentration: 2 uM): inactive: -0.0511
TEAD-luciferase reporter activity (compound concentration: 10 uM): inactive: -0.58

Nc1ccc(OCCCCCN2C(=O)c3ccccc3C2=O)cc1
TEAD-luciferase reporter activity (compound concentration: 200 nM): inactive: -0.66
TEAD-luciferase reporter activity (compound concentration: 2 uM): inactive: 0.891
TEAD-luciferase reporter activity (compound concentration: 10 uM): inactive: -0.594

NS(=O)(=O)c1ccc(N2CCN(CC[C@@H]3OCCc4ccccc43)CC2)cc1 [Sonepiprazole mesilate]
TEAD-luciferase reporter activity (compound concentration: 200 nM): inactive: -1.57
TEAD-luciferase reporter activity (compound concentration: 2 uM): inactive: -0.344
TEAD-luciferase reporter activity (compound concentration: 10 uM): inactive: 0.065
